{"source": "PubChem BioAssay AID743121 (NCATS, 2013)", "test": "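Knock-downs that sensitise breast cancer cells to camptothecin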 (primary screen)", "system": "MDA-MB-231 cells, a human breast cancer line", "reagents": "single siRNA against human genes, 20 nM siRNA (0.8 pmol per well)", "timing": "120 h (drug added 48 h after transfection, read 72 h later)", "challenge": "camptothecin 20 nM (about EC30) for 72 h; vehicle 0.1% DMSO in parallel plates", "measured": "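Cell viability by ATP luminescence (CellTiter-Glo) as % of non-targeting siRNA wells, and the log2 ratio of viability without drug over viability with camptothecin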", "scale": "log2 vehicle/camptothecin viability: higher = stronger sensitisation to camptothecin; viability with camptothecin: higher = more viable cells", "call rule": "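Each gene scored by redundant siRNA activity (RSA) over its individual siRNA ratios; a gene is called active at p < 0.001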", "note": "The whole screen tested about 26,000 reagents; this is an unselected part. 167 of them (0.63%) were called active. 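Calls are per gene from RSA p-values that are not deposited; an individual active-marked siRNA can sensitise only weakly.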 Not all columns of the deposit are shown. No sequences are given here."}
{"Gene":"SLC20A2","PubChem SID":"SID164388671","log2 vehicle/camptothecin viability":-0.392,"viability with camptothecin (% of control)":73.5,"Outcome":"inactive"}
{"Gene":"SLC20A2","PubChem SID":"SID164388673","log2 vehicle/camptothecin viability":-0.299,"viability with camptothecin (% of control)":64.7,"Outcome":"inactive"}
{"Gene":"SLC20A2","PubChem SID":"SID164388674","log2 vehicle/camptothecin viability":-0.0467,"viability with camptothecin (% of control)":51.3,"Outcome":"inactive"}
{"Gene":"SLC20A2","PubChem SID":"SID164388677","log2 vehicle/camptothecin viability":-0.039,"viability with camptothecin (% of control)":85.1,"Outcome":"inactive"}
{"Gene":"USP3 (ubiquitin specific peptidase 3)","PubChem SID":"SID164407701","log2 vehicle/camptothecin viability":0.00552,"viability with camptothecin (% of control)":95,"Outcome":"inactive"}
{"Gene":"USP3 (ubiquitin specific peptidase 3)","PubChem SID":"SID164407702","log2 vehicle/camptothecin viability":-0.539,"viability with camptothecin (% of control)":106,"Outcome":"inactive"}
{"Gene":"USP3 (ubiquitin specific peptidase 3)","PubChem SID":"SID164407704","log2 vehicle/camptothecin viability":-0.162,"viability with camptothecin (% of control)":112,"Outcome":"inactive"}
{"Gene":"CBLB (Cbl proto-oncogene B)","PubChem SID":"SID164356791","log2 vehicle/camptothecin viability":-0.302,"viability with camptothecin (% of control)":55.3,"Outcome":"inactive"}
{"Gene":"CBLB (Cbl proto-oncogene B)","PubChem SID":"SID164356794","log2 vehicle/camptothecin viability":-0.308,"viability with camptothecin (% of control)":82.6,"Outcome":"inactive"}
{"Gene":"CBLB (Cbl proto-oncogene B)","PubChem SID":"SID164356795","log2 vehicle/camptothecin viability":-0.119,"viability with camptothecin (% of control)":101,"Outcome":"inactive"}
{"Gene":"CBLB (Cbl proto-oncogene B)","PubChem SID":"SID164356796","log2 vehicle/camptothecin viability":0.0139,"viability with camptothecin (% of control)":63.3,"Outcome":"inactive"}
{"Gene":"VIP (vasoactive intestinal peptide)","PubChem SID":"SID164393852","log2 vehicle/camptothecin viability":-0.112,"viability with camptothecin (% of control)":46.1,"Outcome":"inactive"}
{"Gene":"VIP (vasoactive intestinal peptide)","PubChem SID":"SID164393853","log2 vehicle/camptothecin viability":0.264,"viability with camptothecin (% of control)":84.3,"Outcome":"inactive"}
{"Gene":"VIP (vasoactive intestinal peptide)","PubChem SID":"SID164393854","log2 vehicle/camptothecin viability":-0.00542,"viability with camptothecin (% of control)":98.8,"Outcome":"inactive"}
{"Gene":"VIP (vasoactive intestinal peptide)","PubChem SID":"SID164393857","log2 vehicle/camptothecin viability":0.303,"viability with camptothecin (% of control)":56.7,"Outcome":"inactive"}

A portion taken from the entries so far, as a working copy:
{"Gene":"SLC20A2","PubChem SID":"SID164388677","log2 vehicle/camptothecin viability":-0.039,"viability with camptothecin (% of control)":85.1,"Outcome":"inactive"}
{"Gene":"USP3 (ubiquitin specific peptidase 3)","PubChem SID":"SID164407701","log2 vehicle/camptothecin viability":0.00552,"viability with camptothecin (% of control)":95,"Outcome":"inactive"}
